For assay [1], the target named is N-terminally V5-tagged Asp272Ala^TEAD4 (full length) (human) (UniProt Q15561). The experiment in a line: co-IP; V5-TEAD4 and (FLAG)3-VGLL2 co-transfected into HEK293FT YAP/TAZ double knockout cells; V5 immunoprecipitation, anti-FLAG Western blot; similar results in wild-type HEK293FT cells. In general terms: In western blotting, separated proteins are transferred to a membrane and probed.

Protein sequences, listed by entry. Tags and fused reporters are not part of them. Lines headed by an entry give the natural chain unless they say otherwise; changes in a name come on top. Chains listed by the source or under a name are the forms on record and can include a tag or linker.
UniProt Q15561: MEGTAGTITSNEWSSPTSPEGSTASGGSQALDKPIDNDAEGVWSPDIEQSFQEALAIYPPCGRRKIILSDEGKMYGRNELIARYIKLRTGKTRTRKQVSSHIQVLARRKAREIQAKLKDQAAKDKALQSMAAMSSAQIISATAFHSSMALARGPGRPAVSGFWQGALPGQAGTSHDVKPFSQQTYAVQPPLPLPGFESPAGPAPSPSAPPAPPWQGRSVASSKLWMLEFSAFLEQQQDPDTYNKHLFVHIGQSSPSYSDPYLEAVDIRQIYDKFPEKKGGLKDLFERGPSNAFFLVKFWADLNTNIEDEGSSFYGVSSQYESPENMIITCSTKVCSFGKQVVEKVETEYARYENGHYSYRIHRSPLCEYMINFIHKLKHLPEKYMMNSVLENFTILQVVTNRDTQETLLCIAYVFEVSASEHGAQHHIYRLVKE
N-terminally V5-tagged Asp272Ala^TEAD4 (full length) (Q15561, form named): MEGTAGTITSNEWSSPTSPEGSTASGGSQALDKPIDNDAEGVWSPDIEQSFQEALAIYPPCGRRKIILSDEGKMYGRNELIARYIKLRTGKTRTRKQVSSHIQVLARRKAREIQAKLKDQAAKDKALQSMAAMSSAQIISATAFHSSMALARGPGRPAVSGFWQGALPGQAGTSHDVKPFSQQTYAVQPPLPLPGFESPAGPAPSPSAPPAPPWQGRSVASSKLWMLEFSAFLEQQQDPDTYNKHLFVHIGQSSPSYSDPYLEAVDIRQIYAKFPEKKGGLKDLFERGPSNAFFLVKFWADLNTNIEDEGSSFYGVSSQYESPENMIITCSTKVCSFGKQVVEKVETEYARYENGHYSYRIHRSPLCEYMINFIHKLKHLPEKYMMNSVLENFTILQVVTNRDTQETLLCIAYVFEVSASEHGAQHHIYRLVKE

Assay [2] has as its target N-terminally V5-tagged wt^TEAD4 (full length) (human) (UniProt Q15561). The description is as above.

No constants are given. Whether binding was seen depends on the method and setting. In cells and extracts the contact can be indirect. Some entries that bind do so weakly or less than the wild type. Sequences can lack the tags named with a protein.

B1: (FLAG)3-wt^VGLL2 (full length) (protein, UniProt Q8N8G2-1 1-317)
chain: MSCLDVMYQVYGPPQPYFAAAYTPYHQKLAYYSKMQEAQECNASPSSSGSGSSSFSSQTPASIKEEEGSPEKERPPEAEYINSRCVLFTYFQGDISSVVDEHFSRALSQPSSYSPSCTSSKAPRSSGPWRDCSFPMSQRSFPASFWNSAYQAPVPPPLGSPLATAHSELPFAAADPYSPAALHGHLHQGATEPWHHAHPHHAHPHHPYALGGALGAQAAPYPRPAAVHEVYAPHFDPRYGPLLMPAASGRPARLATAPAPAPGSPPCELSGKGEPAGAAWAGPGGPFASPSGDVAQGLGLSVDSARRYSLCGASLLS
For the molecule B1, the binding entry in assay [1] and in assay [2] was “binds” throughout.
